# In the supplement of paper PMC10849652:
# Amino acid sequences for entries named in this document (tags omitted). A change or cut given only in a name is not applied to a line headed by its entry.
# UniProt Q3ZAQ7: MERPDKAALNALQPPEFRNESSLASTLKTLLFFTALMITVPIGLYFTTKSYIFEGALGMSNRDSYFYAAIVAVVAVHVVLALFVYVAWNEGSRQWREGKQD
# UniProt Q8IWA0: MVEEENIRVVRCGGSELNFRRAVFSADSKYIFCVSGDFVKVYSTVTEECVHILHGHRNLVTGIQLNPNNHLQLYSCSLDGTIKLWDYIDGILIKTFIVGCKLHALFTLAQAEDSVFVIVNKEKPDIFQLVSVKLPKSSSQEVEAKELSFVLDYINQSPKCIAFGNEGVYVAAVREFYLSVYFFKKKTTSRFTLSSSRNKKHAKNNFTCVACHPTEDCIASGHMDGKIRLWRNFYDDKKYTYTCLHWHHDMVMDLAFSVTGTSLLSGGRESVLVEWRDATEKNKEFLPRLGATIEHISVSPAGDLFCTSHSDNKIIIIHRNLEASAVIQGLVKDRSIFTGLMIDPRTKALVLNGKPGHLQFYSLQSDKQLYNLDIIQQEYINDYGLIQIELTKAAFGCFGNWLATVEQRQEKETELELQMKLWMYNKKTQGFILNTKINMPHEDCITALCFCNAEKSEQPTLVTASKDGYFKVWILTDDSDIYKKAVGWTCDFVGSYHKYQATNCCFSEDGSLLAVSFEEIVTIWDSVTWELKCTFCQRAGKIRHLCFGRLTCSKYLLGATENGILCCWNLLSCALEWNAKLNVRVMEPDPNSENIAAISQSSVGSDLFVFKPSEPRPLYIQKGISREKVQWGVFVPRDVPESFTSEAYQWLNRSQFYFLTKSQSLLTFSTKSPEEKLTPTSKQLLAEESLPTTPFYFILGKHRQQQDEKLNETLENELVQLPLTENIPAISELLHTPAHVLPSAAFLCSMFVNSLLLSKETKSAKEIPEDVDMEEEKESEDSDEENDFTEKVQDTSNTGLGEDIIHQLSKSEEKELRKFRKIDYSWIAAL
# UniProt Q9H967: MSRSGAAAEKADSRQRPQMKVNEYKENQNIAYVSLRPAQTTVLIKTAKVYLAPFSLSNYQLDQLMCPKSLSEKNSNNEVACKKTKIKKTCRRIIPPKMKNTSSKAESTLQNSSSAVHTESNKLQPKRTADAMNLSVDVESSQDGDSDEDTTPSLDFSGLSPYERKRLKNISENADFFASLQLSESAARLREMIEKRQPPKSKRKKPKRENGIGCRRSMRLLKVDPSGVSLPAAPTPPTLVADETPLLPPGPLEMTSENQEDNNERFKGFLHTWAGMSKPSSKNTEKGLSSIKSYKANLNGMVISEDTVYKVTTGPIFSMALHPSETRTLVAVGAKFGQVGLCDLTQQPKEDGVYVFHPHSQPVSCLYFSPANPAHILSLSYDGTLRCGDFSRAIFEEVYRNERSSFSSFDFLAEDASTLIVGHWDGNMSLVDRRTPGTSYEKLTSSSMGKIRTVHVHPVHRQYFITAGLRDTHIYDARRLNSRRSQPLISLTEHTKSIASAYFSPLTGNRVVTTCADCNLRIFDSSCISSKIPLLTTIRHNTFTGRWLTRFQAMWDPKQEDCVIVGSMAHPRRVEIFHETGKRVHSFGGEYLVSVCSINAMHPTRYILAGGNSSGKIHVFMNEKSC
# UniProt A4D1P6: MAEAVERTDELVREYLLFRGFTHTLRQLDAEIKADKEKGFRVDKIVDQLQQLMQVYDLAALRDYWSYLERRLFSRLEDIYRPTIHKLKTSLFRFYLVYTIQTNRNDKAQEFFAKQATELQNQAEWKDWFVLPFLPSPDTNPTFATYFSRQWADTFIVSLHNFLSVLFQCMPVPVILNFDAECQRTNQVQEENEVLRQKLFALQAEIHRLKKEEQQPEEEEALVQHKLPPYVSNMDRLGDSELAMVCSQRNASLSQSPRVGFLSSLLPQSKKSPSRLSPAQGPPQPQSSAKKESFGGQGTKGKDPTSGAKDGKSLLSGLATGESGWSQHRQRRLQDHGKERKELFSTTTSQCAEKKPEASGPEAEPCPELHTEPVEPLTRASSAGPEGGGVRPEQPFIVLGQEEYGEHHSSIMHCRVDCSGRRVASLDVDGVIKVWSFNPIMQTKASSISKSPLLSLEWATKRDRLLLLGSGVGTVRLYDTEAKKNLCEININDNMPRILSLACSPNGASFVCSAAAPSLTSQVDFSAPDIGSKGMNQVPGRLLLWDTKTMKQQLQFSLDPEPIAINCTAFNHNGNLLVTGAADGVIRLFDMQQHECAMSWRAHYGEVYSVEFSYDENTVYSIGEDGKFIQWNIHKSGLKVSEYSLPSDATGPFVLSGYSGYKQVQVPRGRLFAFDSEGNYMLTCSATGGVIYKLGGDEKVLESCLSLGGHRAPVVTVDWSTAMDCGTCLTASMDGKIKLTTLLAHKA
# UniProt A5D8V6: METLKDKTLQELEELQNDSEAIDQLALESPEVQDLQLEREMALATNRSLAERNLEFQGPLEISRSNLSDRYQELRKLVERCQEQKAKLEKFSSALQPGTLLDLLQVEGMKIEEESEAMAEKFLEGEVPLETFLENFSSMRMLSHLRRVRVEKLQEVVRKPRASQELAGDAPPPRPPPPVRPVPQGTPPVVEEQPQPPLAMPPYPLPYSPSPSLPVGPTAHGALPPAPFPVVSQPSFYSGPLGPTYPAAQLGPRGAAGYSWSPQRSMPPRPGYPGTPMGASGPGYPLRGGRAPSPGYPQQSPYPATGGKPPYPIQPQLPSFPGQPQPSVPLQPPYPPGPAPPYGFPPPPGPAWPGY
# UniProt Q96J92: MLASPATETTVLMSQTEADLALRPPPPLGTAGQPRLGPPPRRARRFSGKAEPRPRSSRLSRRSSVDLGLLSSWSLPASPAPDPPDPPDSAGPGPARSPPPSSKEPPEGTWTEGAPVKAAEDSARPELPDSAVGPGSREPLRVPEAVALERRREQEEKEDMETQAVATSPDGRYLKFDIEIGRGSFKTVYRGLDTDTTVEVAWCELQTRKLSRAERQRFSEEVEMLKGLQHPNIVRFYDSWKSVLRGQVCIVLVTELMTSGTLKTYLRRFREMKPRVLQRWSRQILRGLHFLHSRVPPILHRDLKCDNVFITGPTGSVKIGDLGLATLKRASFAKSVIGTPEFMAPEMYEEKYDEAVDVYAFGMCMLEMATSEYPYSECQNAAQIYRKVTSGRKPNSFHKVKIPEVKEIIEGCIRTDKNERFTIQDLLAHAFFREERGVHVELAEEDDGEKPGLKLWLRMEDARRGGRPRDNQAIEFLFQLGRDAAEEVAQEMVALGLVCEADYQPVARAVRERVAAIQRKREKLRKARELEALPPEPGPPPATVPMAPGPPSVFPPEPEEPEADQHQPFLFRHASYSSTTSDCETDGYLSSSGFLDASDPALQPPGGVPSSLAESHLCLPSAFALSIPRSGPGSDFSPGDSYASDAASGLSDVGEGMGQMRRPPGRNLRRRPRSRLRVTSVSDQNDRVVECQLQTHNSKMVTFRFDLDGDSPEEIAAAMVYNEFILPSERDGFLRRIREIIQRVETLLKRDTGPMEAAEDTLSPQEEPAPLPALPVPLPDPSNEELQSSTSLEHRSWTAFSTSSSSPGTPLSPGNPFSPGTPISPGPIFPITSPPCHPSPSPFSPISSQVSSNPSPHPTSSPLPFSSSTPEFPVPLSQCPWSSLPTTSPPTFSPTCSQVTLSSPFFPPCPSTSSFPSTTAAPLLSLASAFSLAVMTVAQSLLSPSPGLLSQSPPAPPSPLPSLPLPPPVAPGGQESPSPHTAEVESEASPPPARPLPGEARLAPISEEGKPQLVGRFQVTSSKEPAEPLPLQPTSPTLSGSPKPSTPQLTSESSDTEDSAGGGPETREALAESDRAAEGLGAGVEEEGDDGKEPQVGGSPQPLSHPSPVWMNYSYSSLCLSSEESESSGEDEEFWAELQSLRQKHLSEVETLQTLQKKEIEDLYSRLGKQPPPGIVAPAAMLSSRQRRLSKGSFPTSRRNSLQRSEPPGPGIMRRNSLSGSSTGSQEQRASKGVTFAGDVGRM
# UniProt Q9Y6I7: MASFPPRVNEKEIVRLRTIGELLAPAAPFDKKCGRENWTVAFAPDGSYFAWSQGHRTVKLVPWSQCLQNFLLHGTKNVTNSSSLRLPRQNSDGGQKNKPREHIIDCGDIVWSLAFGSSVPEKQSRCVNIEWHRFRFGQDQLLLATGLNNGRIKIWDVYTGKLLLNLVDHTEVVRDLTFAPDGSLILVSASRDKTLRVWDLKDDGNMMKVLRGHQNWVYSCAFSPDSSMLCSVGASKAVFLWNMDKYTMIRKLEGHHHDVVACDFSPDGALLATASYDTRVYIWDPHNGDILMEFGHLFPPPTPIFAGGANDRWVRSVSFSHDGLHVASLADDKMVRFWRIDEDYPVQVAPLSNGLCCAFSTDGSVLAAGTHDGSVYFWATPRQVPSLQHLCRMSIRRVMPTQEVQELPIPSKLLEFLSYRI
# UniProt Q9HCS7: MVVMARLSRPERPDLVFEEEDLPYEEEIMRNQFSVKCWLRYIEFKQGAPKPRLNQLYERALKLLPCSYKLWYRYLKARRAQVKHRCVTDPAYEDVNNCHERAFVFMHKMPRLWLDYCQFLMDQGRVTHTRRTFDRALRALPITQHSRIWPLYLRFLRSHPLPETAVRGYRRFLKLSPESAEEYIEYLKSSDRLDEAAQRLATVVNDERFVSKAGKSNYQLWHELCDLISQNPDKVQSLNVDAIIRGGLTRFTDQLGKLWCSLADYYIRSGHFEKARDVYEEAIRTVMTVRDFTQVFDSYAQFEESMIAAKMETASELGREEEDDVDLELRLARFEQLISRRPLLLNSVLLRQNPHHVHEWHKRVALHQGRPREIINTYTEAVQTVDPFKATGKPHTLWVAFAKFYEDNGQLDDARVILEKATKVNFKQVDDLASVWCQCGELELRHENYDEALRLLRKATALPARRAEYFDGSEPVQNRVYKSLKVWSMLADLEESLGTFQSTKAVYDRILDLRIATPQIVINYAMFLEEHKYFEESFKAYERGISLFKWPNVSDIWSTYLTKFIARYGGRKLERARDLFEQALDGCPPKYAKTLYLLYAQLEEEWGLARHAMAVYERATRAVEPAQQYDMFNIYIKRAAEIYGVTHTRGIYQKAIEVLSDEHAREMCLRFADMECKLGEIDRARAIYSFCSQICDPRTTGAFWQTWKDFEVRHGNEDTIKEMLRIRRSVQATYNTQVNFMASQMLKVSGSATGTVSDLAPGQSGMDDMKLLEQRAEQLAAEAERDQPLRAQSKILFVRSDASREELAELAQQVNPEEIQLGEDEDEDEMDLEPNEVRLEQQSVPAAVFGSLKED
# UniProt Q8NEZ3: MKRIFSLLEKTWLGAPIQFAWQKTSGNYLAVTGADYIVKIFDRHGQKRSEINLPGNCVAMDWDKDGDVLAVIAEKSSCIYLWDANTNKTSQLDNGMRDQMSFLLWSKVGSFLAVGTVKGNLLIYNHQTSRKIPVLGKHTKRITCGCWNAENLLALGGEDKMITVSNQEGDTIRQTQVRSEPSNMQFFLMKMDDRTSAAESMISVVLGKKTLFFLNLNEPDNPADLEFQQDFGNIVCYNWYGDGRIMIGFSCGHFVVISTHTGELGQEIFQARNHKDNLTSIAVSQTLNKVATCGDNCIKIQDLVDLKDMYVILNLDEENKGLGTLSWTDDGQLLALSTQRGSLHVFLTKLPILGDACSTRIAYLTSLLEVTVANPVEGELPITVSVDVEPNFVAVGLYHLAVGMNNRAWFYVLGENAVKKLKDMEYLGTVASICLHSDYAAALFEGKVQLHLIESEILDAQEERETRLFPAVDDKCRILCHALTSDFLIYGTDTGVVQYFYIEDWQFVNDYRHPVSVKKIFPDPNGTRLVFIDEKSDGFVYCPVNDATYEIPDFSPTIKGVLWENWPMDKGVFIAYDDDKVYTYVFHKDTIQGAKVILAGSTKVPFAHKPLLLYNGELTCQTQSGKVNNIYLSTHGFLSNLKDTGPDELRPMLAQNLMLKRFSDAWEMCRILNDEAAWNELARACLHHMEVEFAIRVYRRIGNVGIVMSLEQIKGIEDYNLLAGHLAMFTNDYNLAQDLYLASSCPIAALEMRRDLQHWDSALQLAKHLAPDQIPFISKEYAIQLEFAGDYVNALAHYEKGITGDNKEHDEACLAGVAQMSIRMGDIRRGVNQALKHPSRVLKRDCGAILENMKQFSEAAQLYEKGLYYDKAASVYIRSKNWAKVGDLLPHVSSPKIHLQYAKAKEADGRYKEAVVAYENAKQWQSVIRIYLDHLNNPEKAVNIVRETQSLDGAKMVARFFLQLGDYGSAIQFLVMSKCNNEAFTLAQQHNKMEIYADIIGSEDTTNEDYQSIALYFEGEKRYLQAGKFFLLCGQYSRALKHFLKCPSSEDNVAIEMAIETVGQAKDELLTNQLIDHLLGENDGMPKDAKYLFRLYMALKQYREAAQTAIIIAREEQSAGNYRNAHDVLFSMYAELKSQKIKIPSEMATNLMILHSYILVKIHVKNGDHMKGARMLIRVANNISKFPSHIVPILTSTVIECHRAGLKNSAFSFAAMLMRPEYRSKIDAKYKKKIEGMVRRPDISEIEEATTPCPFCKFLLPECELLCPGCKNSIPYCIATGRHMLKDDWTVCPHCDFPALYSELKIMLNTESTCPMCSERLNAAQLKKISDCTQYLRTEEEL
# The other results are listed elsewhere or left out.
# Compound: CCCCN(Cc1ccc(C(=O)NO)cc1)C(=O)Nc1ccccc1 [Nexturastat A]
# Experiment: log2 fold change, soluble protein after heating vs DMSO (PISA); higher = thermal stabilisation; K562 cells, 10 uM, 30 min; active = over 0.2 and 3.5 SD of the protein, either way, in both replicates (recomputed)
# Summary of the method: (§1)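 K562 cells at 2×10^6 cells/mL were treated with 10 μM compound for 30 min. Aliquots were heated for 3 min across 48°C-58°C, pooled, and extracted in PBS with 0.5% NP-40 at 4°C; soluble protein was the supernatant after 21,000xg for 90 min. Soluble protein was quantified by TMTpro 16plex LC-MS/MS with channel sums equalised, and reported as log2 fold change in thermal stability against DMSO controls, with values from duplicates.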
row,Target,log2 fold change
1,WDR4 isoform 3 (UniProt P57081),inactive: -0.031
2,WWP2 (UniProt O00308),inactive: 0.434
3,VIRMA (UniProt Q69YN4),inactive: 0.076
4,"VPS35, A0A1W2PP10",inactive: 0.214
5,VWA3B isoform 6 (UniProt Q502W6),inactive: -0.292
6,VMA21 isoform 2 (UniProt Q3ZAQ7),inactive: 0.128
7,WARS1 (UniProt G3V227),inactive: 0.459
8,WARS1 (UniProt G3V339),inactive: 0.188
9,WARS1 (UniProt G3V5U1),inactive: 0.136
10,WDR75 (UniProt Q8IWA0),inactive: 0.395
11,WDR76 (UniProt Q9H967),inactive: 0.418
12,WDR91 (UniProt A4D1P6),inactive: 0.103
13,VLDLR (UniProt P98155),inactive: 0.081
14,WASF1 (UniProt Q92558),inactive: -0.059
15,VPS37C (UniProt A5D8V6),inactive: 0.11
16,VDAC2 (UniProt Q5JSD1),inactive: -0.055
17,WNK4 (UniProt Q96J92),inactive: 0.363
18,VIL1 (UniProt P09327),inactive: 0.011
19,WSB1 (UniProt Q9Y6I7),inactive: -0.016
20,XAB2 (UniProt Q9HCS7),inactive: 0.469

# Compound: CCCS(=O)(=O)Nc1ccc(F)c(C(=O)c2c[nH]c3ncc(-c4ccc(Cl)cc4)cc23)c1F [vemurafenib]
# Experiment: as above
# Summary of the method: as §1
row,Target,log2 fold change
1,"VPS35, A0A1W2PP10",inactive: 0.02
2,VWA3B isoform 6 (UniProt Q502W6),inactive: -0.1
3,WARS1 (UniProt G3V227),inactive: -0.455
4,VPS54 (UniProt Q9P1Q0),inactive: 0.117
5,WDR75 (UniProt Q8IWA0),inactive: -0.126
6,WDR19 (UniProt Q8NEZ3),inactive: -0.274
7,WARS1 (UniProt G3V277),active: -0.587
8,VEGFA (UniProt H0YBI8),inactive: 0.037
9,WDR91 (UniProt A4D1P6),inactive: 0.108
10,WASF1 (UniProt Q92558),inactive: 0.003
11,VPS37C (UniProt A5D8V6),inactive: 0.097
12,WDFY2 (UniProt Q96P53),inactive: 0.066
13,WNK4 (UniProt Q96J92),inactive: 0.248
